Laboratory results: PubChem BioAssay AID686943 (Drosophila RNAi Screening Center, 2013)
In all, the deposit lists about 23,000 reagents; shown is an unselected part of those that have a named target and a result. 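Extra replicates exist only for a retested subset of genes; insulin dose and duration not given; both raised and lowered dpERK matter.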 A plus sign joins genes that one reagent is predicted to hit. Not stated in the record: the amount of reagent, the time to read-out.

- Aim: 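Search across the genome for regulators of signalling from receptor tyrosine kinase to ERK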 (primary screen)
- Cell system: Drosophila S2R+ haemocyte-like cells expressing YFP-tagged ERK (Rolled)
- Knock-down reagent: long dsRNA against Drosophila genes
- Conditions: insulin stimulation versus unstimulated cells; dose and duration not given
- Measurement: 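Per-plate z-scores of phospho-ERK immunostaining normalised to YFP-tagged ERK, measured with and without insulin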
- Scale: replicate 1, z-score of dpERK with insulin and replicate 2, z-score of dpERK with insulin: higher = more active ERK per ERK-YFP after insulin; replicate 1, z-score of dpERK under basal conditions: higher = more basal active ERK per ERK-YFP; replicate 1, z-score of ERK-YFP with insulin: higher = more YFP-tagged ERK signal

Gene,DRSC id,"replicate 1, z-score of dpERK with insulin","replicate 2, z-score of dpERK with insulin","replicate 1, z-score of dpERK under basal conditions","replicate 1, z-score of ERK-YFP with insulin"
Dph3 (Diphthamide biosynthesis 3),DRSC14923,0.2,0.28,0.31,0.34
TBC1d7 (TBC1 domain family member 7),DRSC15985,-1.02,-0.12,0.58,-0.17
tyf (twenty-four),DRSC18382,0.33,-2.72,-0.33,0.48
hyd (hyperplastic discs),DRSC16971,-2.62,0.05,-1.36,2.03
nrm (neuromusculin),DRSC11597,-0.18,0.41,-0.95,0.27
nrm (neuromusculin),DRSC11599,-0.5,0.68,0.11,-0.14
nrm (neuromusculin),DRSC11897,0.11,0.86,0.68,-0.04
CG42562,DRSC06453,0.13,-0.7,0.11,0.12
CG12301,DRSC09875,0.15,-0.17,0.41,-1.54
CG11912,DRSC00332,-0.08,0.7,0,1.57
CG11263,DRSC09832,0.28,0.12,0.59,0.21
prd (paired),DRSC03597,0.14,0.12,-0.41,0.21
Sce (Sex combs extra),DRSC16825,-1.05,-0.58,-1.11,0.61
CG42811,DRSC15367,0.28,0,-1.09,0.21
CG32263,DRSC22431,-0.09,-0.73,-0.46,-0.4
RpS29 + snoRNA:Psi18S-1275,DRSC16433,-1.6,0.23,-1.86,-2.36
CG10140,DRSC09704,0.21,-0.47,0.09,0.3
onecut,DRSC17175,-0.37,-0.63,-0.59,0.32
Drsl4 (Drosomycin-like 4),DRSC08034,-0.58,-0.72,-0.64,0.31
xmas-1 (retired record),DRSC20386,-0.89,0.67,1.11,0.44
lncRNA:CR32553 (long non-coding RNA:CR32553),DRSC19229,0.08,0.09,-0.17,0.14
CG13170,DRSC06298,-1.98,-2.34,-1.65,-0.85
CG12640,DRSC17847,0.16,-0.63,0.42,-0.51
